# Values from PubChem BioAssay AID1259281 (Sanger Institute, 2017).
# Screen: 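Screen kinases and frequently colorectal-mutated genes for lethal knock-downs and drug partners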 (primary screen)
# System: human COLO678 colorectal cancer cell line
# Knock-down reagent: siRNA pool against human genes
# Treatment: anchor drugs at fixed doses: BYL719 1 µM, cetuximab 5 µg/ml or trametinib 10 nM; DMSO vehicle for the siRNA-alone arm
# Measurement: 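Surviving cells scaled to non-targeting siRNA control as replicate means; robust z-score for knock-down alone; synergy scores weigh knock-down with drug against the predicted combined effect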
# Direction: robust z-score, siRNA alone: higher = more viable cells; strongly negative means essential; viability, siRNA alone: higher = more surviving cells; synergy score with BYL719 and synergy score with trametinib and synergy score with cetuximab: higher = stronger synergistic killing with drug
# Active means: 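Called essential (knock-down alone) if knock-down by itself drops cell number to a robust z-score under -3; all others no change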
# Calls: active = essential (knock-down alone); inactive = no change
# This is an unselected part of 794 deposited reagents. In the full data, 22 (2.8%) got an active call. 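Calls rest on knock-down alone only; drug synergy scores play no part in them.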 Viability is capped at 1. Not stated in the record: the amount of reagent, the time to read-out.
target gene,"robust z-score, siRNA alone","viability, siRNA alone (fraction of control)",synergy score with BYL719,synergy score with trametinib,synergy score with cetuximab,Call
EPHB2 (GeneID 2048),0.473,1,-0.0643,0.00125,0.019,inactive
PRP4K (GeneID 8899),0.0704,0.987,0.0402,0.0491,0.0957,inactive
CHEK1 (GeneID 1111),-0.772,0.96,0.071,-0.0475,0.0101,inactive
NEK6 (GeneID 10783),0.473,1,-0.0919,0.00753,-0.0481,inactive
PNKP (GeneID 11284),-1.4,0.94,0.0385,0.00295,-0.00708,inactive
CSNK1G3 (GeneID 1456),0.473,1,0.106,-0.00762,0.0144,inactive
MYLK3 (GeneID 91807),-1.74,0.93,-0.0887,0.0359,0.055,inactive
PAK5 (GeneID 57144),0.473,1,0.0176,0.107,0.0283,inactive
PRKG2 (GeneID 5593),0.473,1,-0.0455,-0.0292,-0.0681,inactive
SMG1 (GeneID 23049),0.473,1,-0.0821,-0.00294,-0.0544,inactive
NEK7 (GeneID 140609),0.473,1,-0.0464,-0.032,-0.0681,inactive
GAK (GeneID 2580),0.473,1,0.0403,0.000294,-0.0315,inactive
HIPK4 (GeneID 147746),0.473,1,-0.0919,-0.0249,0.0237,inactive
PDGFRA (GeneID 5156),0.473,1,-0.0566,0.0352,-0.00117,inactive
FN1 (GeneID 2335),0.473,1,-0.0635,-0.0371,-0.0188,inactive
STK39 (GeneID 27347),0.473,1,0.124,0.0706,0.0696,inactive
MAP3K5 (GeneID 4217),-0.383,0.973,0.0531,-0.00986,-0.0361,inactive
GRK4 (GeneID 2868),0.473,1,-0.0889,0.0505,0.0549,inactive
PIK3C2G (GeneID 5288),-6.69,0.773,-0.228,-0.0348,-0.119,active
FOXP1 (GeneID 27086),-3.89,0.861,-0.131,-0.128,-0.0286,active
CREBBP (GeneID 1387),-2.99,0.89,0.0458,0.0286,0.0133,inactive
SMC1A (GeneID 8243),0.473,1,0.151,0.0497,0.059,inactive
NEK10 (GeneID 152110),0.0221,0.986,0.0512,0.0195,0.0637,inactive
KALRN (GeneID 8997),0.112,0.989,-0.102,0.0517,0.0962,inactive
NLK (GeneID 51701),0.473,1,-0.0629,0.0754,0.0454,inactive
MAPK12 (GeneID 6300),0.473,1,-0.0919,0.00522,-0.00294,inactive
CALM1 (GeneID 801),0.473,1,0.0825,0.0376,0.0102,inactive
MAP2K3 (GeneID 5606),0.473,1,0.163,-0.017,0.103,inactive
BCOR (GeneID 54880),0.473,1,-0.0152,0.0218,0.0354,inactive
MOK (GeneID 5891),0.473,1,-0.00388,0.0124,-0.0513,inactive
HK1 (GeneID 3098),0.425,0.998,-0.0933,-0.0208,0.035,inactive
PKMYT1 (GeneID 9088),0.0285,0.986,-0.0923,0.0723,-0.0258,inactive
MARK3 (GeneID 4140),0.473,1,0.0828,0.0624,0.0578,inactive
YES1 (GeneID 7525),0.473,1,-0.0919,-0.0309,-0.0254,inactive
IGF2R (GeneID 3482),0.473,1,-0.00807,-0.0527,-0.0137,inactive
AMER1 (GeneID 139285),0.473,1,0.022,-0.0747,0.0489,inactive
DLG2 (GeneID 1740),0.473,1,0.0313,-0.00363,0.0749,inactive
SCYL3 (GeneID 57147),0.473,1,-0.0225,-0.0511,0.0122,inactive
KCNH2 (GeneID 3757),0.473,1,-0.0919,0.0348,-0.0305,inactive
GUCY2F (GeneID 2986),0.473,1,-0.0919,0.0207,0.0796,inactive
ULK3 (GeneID 25989),0.473,1,-0.0919,0.0222,-0.0681,inactive
DGKG (GeneID 1608),0.473,1,-0.0281,0.0121,0.00805,inactive
MOS (GeneID 4342),-0.796,0.96,0.0222,0.0795,-0.0271,inactive
LIMK1 (GeneID 3984),0.473,1,-0.0919,-0.00896,0.01,inactive
GRK7 (GeneID 131890),0.473,1,0.168,0.0973,0.0911,inactive
MSR1 (GeneID 4481),-1.5,0.937,0.0346,-0.0197,0.055,inactive
PIK3CG (GeneID 5294),-0.45,0.971,0.118,-0.0448,0.079,inactive
DYRK3 (GeneID 8444),0.473,1,-0.0919,0.0638,-0.0681,inactive
MYH10 (GeneID 4628),0.473,1,-0.0402,-0.00363,0.0165,inactive
MAPK6 (GeneID 5597),0.338,0.996,0.0487,0.0388,0.0563,inactive

Reagents above called active:
target gene,"robust z-score, siRNA alone","viability, siRNA alone (fraction of control)",synergy score with BYL719,synergy score with trametinib,synergy score with cetuximab,Call
PIK3C2G (GeneID 5288),-6.69,0.773,-0.228,-0.0348,-0.119,active
FOXP1 (GeneID 27086),-3.89,0.861,-0.131,-0.128,-0.0286,active
